Experimental data: paper PMC4986862
No constants are given. Whether binding was seen depends on the method and setting. Binding calls can cover weak binding; strength is not graded here. Sequences can lack the tags named with a protein.

The chains behind the UniProt entries cited, without tags or fusion partners. Where a name states a change or a piece, a line headed by the entry shows the natural chain unless it says otherwise.
UniProt Q38997: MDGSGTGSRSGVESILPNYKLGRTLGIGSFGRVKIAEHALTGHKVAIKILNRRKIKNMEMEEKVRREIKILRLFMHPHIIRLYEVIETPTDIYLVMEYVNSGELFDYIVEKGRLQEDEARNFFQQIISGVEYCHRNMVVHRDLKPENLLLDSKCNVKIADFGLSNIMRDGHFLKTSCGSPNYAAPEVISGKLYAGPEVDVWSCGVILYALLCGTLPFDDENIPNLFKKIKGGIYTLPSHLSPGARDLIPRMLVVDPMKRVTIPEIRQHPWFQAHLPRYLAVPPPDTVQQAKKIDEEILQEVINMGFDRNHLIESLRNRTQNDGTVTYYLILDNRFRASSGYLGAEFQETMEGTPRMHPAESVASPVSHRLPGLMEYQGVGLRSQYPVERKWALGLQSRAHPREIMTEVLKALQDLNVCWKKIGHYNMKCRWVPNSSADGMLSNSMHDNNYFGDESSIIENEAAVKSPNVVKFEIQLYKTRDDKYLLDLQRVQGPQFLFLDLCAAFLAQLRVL

Target: BD–AKIN10 (AKIN10 fused to the GAL4 binding domain) (Arabidopsis thaliana) (UniProt Q38997)
Test: two-hybrid; pairwise tests, growth on selective medium with 25 mM 3-AT

binding: binds
B1: AD–PTL (full-length PETAL LOSS fused to the GAL4 activation domain) (protein, UniProt Q9LZS0 1-591)
chain: MDQDQHPQYGIPELRQLMKGGGRTTTTTPSTSSHFPSDFFGFNLAPVQPPPHRLHQFTTDQDMGFLPRGIHGLGGGSSTAGNNSNLNASTSGGGVGFSGFLDGGGFGSGVGGDGGGTGRWPRQETLTLLEIRSRLDHKFKEANQKGPLWDEVSRIMSEEHGYQRSGKKCREKFENLYKYYRKTKEGKAGRQDGKHYRFFRQLEALYGDSNNLVSCPNHNTQFMSSALHGFHTQNPMNVTTTTSNIHNVDSVHGFHQSLSLSNNYNSSELELMTSSSEGNDSSSRRKKRSWKAKIKEFIDTNMKRLIERQDVWLEKLTKVIEDKEEQRMMKEEEWRKIEAARIDKEHLFWAKERARMEARDVAVIEALQYLTGKPLIKPLCSSPEERTNGNNEIRNNSETQNENGSDQTMTNNVCVKGSSSCWGEQEILKLMEIRTSMDSTFQEILGGCSDEFLWEEIAAKLIQLGFDQRSALLCKEKWEWISNGMRKEKKQINKKRKDNSSSCGVYYPRNEENPIYNNRESGYNDNDPHQINEQGNVGSSTSNANANANVTTGNPSGAMAASTNCFPFFMGDGDQNLWESYGLRLSKEENQ
